Experimental data published in PMC11408460 (Cellular and Molecular Life Sciences: CMLS, 2024).
Results are given in words; binding and its absence hold for the method and conditions named.

Tests used:
[1] = target: HBA1(111–132), 22-amino acid C-terminal fragment of human hemoglobin A (human); assay: SEC-MALS; both purified
[2] = target: HBA1(120–132), C-terminal 13-mer fragment of HBA1(111–132) (human); assay: SEC-MALS; both purified

| Binder | binding [1] | binding [2] |
| --- | --- | --- |
| AAHLPAEFTPAVHASLDKFLAS [HBA1(111–132), 22-amino acid C-terminal fragment of human hemoglobin A] | no binding (tested: 5 mg/ml) | – |
| PAVHASLDKFLAS [HBA1(120–132), C-terminal 13-mer fragment of HBA1(111–132)] | – | no binding (tested: 10 mg/ml) |
